# Reference: article PMC10163288
# This is one part of the list.
# B1: il2ra_site1_3nfp_normal_mot_HHH_b1_02400_af2_000000128_0001_43_56_H_._HEEHE_3114_0001_0000100006_0000001_0 (protein)
# chain: LDAEHASKMIEEALKSLGAKSFEVEVSNNEVEVTVEGDDERSEEVREAAERVAKAVGVPVEVESL
# B2: il2ra_site2_3nfp_normal_mot_HHH_b1_00660_af2_000000090_0001_40_57_H_._HHH_b1_07326_af2_0001_0001200073_0000001_0_af2pred_0001_1_af2pred_swapped (protein)
# chain: SSSSSSSLEELIERIEELLERGDPEEAREIVREAAHVAYELNDHEAFAILVELLNLIDSSSSSSS
# B3: il2ra_site2_3nfp_sap_22_mot_HHH_b2_08086_000000129_0001_21_37_H_._HHH_b2_00706_0001_0000200021_0000001_0_0001_af2pred_0001_af2pred (protein)
# chain: DVERRLFELARERNDPDVLRALLLIRKLKEEGVPPEEIEQEVEKIIKRAGLPPEIEELLREAVRE
# B4: il2ra_site1_3nfp_normal_mot_HHH_b1_06312_000000199_0001_1_18_H_._HHH_b1_03473_af2_0001_0000400031_0000001_0_af2pred_dldesign_0_af2pred (protein)
# chain: SSSSRERLLAAFEEASALYTAGKPEEALEALRAAEAEARAAGMNALARFLRICRENVEKLISSSS
# B5: il2ra_site1_3nfp_sap_16_mot_HHH_b1_07561_af2_000000074_0001_22_38_H_._3c6e6c7a1689b1ff61bc13c65436e505_0001_1_0001_0000800023_0000001_0_0001_af2pred_0001_af2pre … (protein)
# chain: SEEKYIKDIIRTLEQIPNPRVRELAEEAEELLENGDPEEALKVLKEAAELLGDPNARRLIERALN
# B6: il2ra_site1_1z92_normal_mot_7d8fec69ab3f203d40951262a957afce_0001_af2_000000065_0001_53_65_H_._2dbe003d1ac158754a55d59e89b30524_0001_1_af2_0001_0000300018_00000 … (protein)
# chain: SELKALLERVLDELAAENPREAVVIGQLRAKLERDPEAAARHLLRLLKVAGRPDVVAELEKLLEE
# B7: il2ra_site2_2erj_sap_23_mot_9983d6beee032e3819f467d055548630_0001_1_000000194_0001_16_32_H_._bee18c9904f98e661b1e98a71a1d884a_0001_af2_0001_0000200025_0000001_0 … (protein)
# chain: SSSSDLTEEADELVWRAMEDPEFIEEARELLEELLERAEERGDEEAAESIRAALRLLEWGSSSSS
# B8: il2ra_site1_2b5i_normal_mot_HHH_b2_04052_af2_000000090_0001_1_15_H_._HHH_b2_00976_0001_0000100008_0000001_0_af2pred_dldesign_0_af2pred (protein)
# chain: SSSSSSPERRQFDLVFRARNAAARGDYARLRELLAELRELADATDDEQLRAIAAELEARLSSSSS
# B9: il2ra_site2_2erj_normal_mot_HHH_b1_08474_af2_000000004_0001_1_19_H_._HHH_b2_03419_0001_0000100001_0000001_0_af2pred_0001_af2pred (protein)
# chain: SSSSSDELEELIEQAEELLEEGDHEEAFRILLEAAEIAAKNEDDETLERILRLSFEVFKSSSSSS
# B10: il2ra_site2_3nfp_normal_mot_HHH_b1_00660_af2_000000090_0001_40_57_H_._HHH_b2_06895_0001_0000600025_0000001_0_af2pred_0001_af2pred_1_swapped (protein)
# chain: SSSSDQEVRELLEEVEELLERGDYEEARRLLERAAELARQLGDRELILKIIELRELLDELSSSSS
# B11: il2ra_site2_3nfp_normal_mot_HHH_b2_06150_000000217_0001_39_53_H_._HHH_b2_03993_af2_0001_0000700011_0000001_0 (protein)
# chain: SSSSSEEEEEVEKLIEKAEELLERGNPEKAQKVLQRATHIAYRINNPRLFYLLAELLELVASSSS
# B12: il2ra_site2_3nfp_normal_mot_HHH_b1_05158_000000192_0001_1_17_H_._HHH_b1_05195_0001_0000600013_0000001_0_af2pred_0001_af2pred (protein)
# chain: SSSSSSDSELTFLLILLEALLEEVDDPEIRELLEEALEELREKKDPEIARKVLKEASEYLSSSSS
# B13: il2ra_site1_1z92_sap_20_mot_HHH_b2_05038_af2_000000006_0001_39_52_H_._HHH_b1_04938_0001_0000200009_0000001_0_0001 (protein)
# chain: DEEHIAWAALWLAGGDPERVERVLKYMIKKARERGDPEMTEAAEEVLRILEEDPEEFKELVERAK
# B14: il2ra_site2_3nfp_normal_mot_HHH_b2_06150_000000217_0001_39_53_H_._HHH_b2_03993_af2_0001_0000300005_0000001_0_af2pred_0001_af2pred (protein)
# chain: SSSSSEEEEEVRRLIEEARELLERGNPEKAKEVLEKAAQIAIEINNPELFLILLELRHLVESSSS
# B15: il2ra_site2_3nfp_normal_mot_HHH_b1_04960_000000149_0001_23_39_H_._HHH_b1_08457_0001_0000400039_0000001_0 (protein)
# chain: SSSSDAEELVKELEEKLEEAEKEGDEELLEKLAFELFALAVDLQDRRLAALAAEIFIRLRSSSSS
# B16: il2ra_site1_2b5i_normal_mot_HHH_b1_00432_000000039_0001_1_18_H_._HHH_b1_07635_af2_0001_0000400022_0000001_0_af2pred_0001_af2pred (protein)
# chain: SSSSDEKEEEVIELAKEAIEKLEKSGSERRARALRRALEALEEEGDPKLLEELEHLVRAILSSSS
# B17: il2ra_site2_2erj_sap_25_mot_64bd02d26d05ce9f1a62b616cea0b888_0001_af2_000000029_0001_36_49_H_._HHH_b1_00394_0001_0000200011_0000001_1_0001_af2pred_0001_1_af2pre … (protein)
# chain: SSSSSDEEAREEAEELEEEAHKVSLREAMKLLEEIDKLAHEYNDPEIEKIAEELFRRLSSSSSSS
# B18: il2ra_site2_2erj_normal_mot_HHH_b1_06157_000000296_0001_22_38_H_._HHH_b1_03967_0001_0000200017_0000001_0 (protein)
# chain: SSSSSDLLERAYELAVILLHLVSRNDREEFEEISEEFREIVERLQSEAAREALELLEEELSSSSS
# Molecular target: il2ra, P01589
# Assay: yeast display titration
row,Binder,apparent Kd
1,B1,inactive: no binding seen
2,B2,inactive: no binding seen
3,B3,inactive: no binding seen
4,B4,inactive: no binding seen
5,B5,inactive: no binding seen
6,B6,inactive: no binding seen
7,B7,inactive: no binding seen
8,B8,inactive: no binding seen
9,B9,inactive: no binding seen
10,B10,inactive: no binding seen
11,B11,inactive: no binding seen
12,B12,inactive: no binding seen
13,B13,inactive: no binding seen
14,B14,inactive: no binding seen
15,B15,inactive: no binding seen
16,B16,inactive: no binding seen
17,B17,inactive: no binding seen
18,B18,inactive: no binding seen

# Laid out differently: entries from further up
row	Binder	apparent Kd
14	B14	inactive: no binding seen
15	B15	inactive: no binding seen
